Earlier results in patent US20100292169A1, “METHODS AND COMPOSITIONS FOR REGULATING HDAC6 ACTIVITY” (Duke University, priority 2005, published 2010).
At least one compound was matched to its structure with a doubt left.

System: hsp90 client proteins (e.g. p53, ErbB2, Raf-1)
Details: cited from earlier work

SMILES: C/C=C1\NC(=O)[C@H]2CSSCC/C=C/[C@H](CC(=O)N[C@H](C(C)C)C(=O)N2)OC(=O)[C@H](C(C)C)NC1=O [FK228]
- depletion of hsp90 client proteins: deplete cells of several hsp90 client proteins
